Binding data for 1 substance are collected here from publication PMC12618502.

These are yes or no findings as the source states them, for the method shown. In cells and extracts the contact can be indirect. Binding calls can cover weak binding; strength is not graded here. Where a sequence is shown, tags or fusion partners need not be part of it.

This assay addresses T1, GFP-tagged SCP8 (SCP8-GFP), Verticillium dahliae small cysteine-containing effector VdSCP8 (Verticillium dahliae) (UniProt G2XD53).
T1 sequence: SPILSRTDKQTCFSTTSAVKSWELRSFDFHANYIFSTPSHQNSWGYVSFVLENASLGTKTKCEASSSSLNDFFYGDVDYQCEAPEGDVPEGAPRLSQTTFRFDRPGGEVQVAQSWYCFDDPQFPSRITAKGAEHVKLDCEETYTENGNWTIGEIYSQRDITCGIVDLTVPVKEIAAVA
Description: co-IP; N. benthamiana leaves co-expressing SCP8-GFP and SBT1-myc, 2 days after agroinfiltration; RIPA buffer with protease inhibitors; anti-GFP agarose beads, 4 °C, one hour; blots with anti-GFP and anti-myc.

For the substance “myc-tagged N. benthamiana SBT1 (SBT1-myc) (enzyme)”, the binding entry is listed as “binds”.
